From the supplement of paper PMC12873370 come the findings set out here.

Where “and” joins values, the source holds several entries; their conditions need not be identical. Equal entries are not always repeated. The list shows a part of the results. Many values rest on one well or one pass, so single values are uncertain.

The test system of experiment [1] is MEPP (mouse ovarian epithelium Trp53/Pten KO). The experiment in a line: cell viability relative to untreated (fraction); higher = less growth inhibition. The conditions noted are these: 5 µM; 3 days.
Experiment [2] has as its system PREPP (mouse prostate epithelium Trp53/Pten KO). Described as above. The conditions noted are these: 5 µM; 3 days.

For `COC(=O)[C@]12CCC(C)(C)C[C@H]1[C@H]1C(=O)C=C3[C@@]4(C)C=C(C#N)C(=O)C(C)(C)[C@@H]4CC[C@@]3(C)[C@]1(C)CC2`, the values for the cell viability in experiment [1] and in experiment [2] were 0.144 and 0.383, respectively.

Take `CN1CCC(CNc2ccc3ncc(-c4cccc(OC(F)(F)F)c4)n3n2)CC1`: the figures for the cell viability in experiment [1] and in experiment [2] were 0.649 and 0.623, respectively.

For the compound `Nc1nccc2c1ncn2C1C=C(CO)C(O)C1O` (stereo not given), the cell viability in experiment [1] stood at 0.583; in experiment [2] it was 0.967.

For `COc1cc2c(cc1OC)C(=O)C(CC1CCN(Cc3ccccc3)CC1)C2` (stereo not given), the figures for the cell viability in experiment [1] and in experiment [2] were 1.07 and 0.905, respectively.

As for `O=C(Nc1cccc(Nc2nccc(Nc3cccc(C(F)(F)F)c3)n2)c1)C1CC1`, the cell viability in experiment [1] is 1.06; in experiment [2], 0.943.

For `C#Cc1cccc(Nc2ncnc3cc(OC)c(OCCCCCCC(=O)NO)cc23)c1`, the results for the cell viability in experiment [1] and in experiment [2] were 0.444 and 0.707, respectively.

Consider `Cc1cc(-c2nc(-c3ccc(OC(F)(F)F)cc3)no2)nn1Cc1ccnc(N2CCN(C3CC3)CC2)c1`, for which the values for the cell viability in experiment [1] and in experiment [2] were 1.04 and 1.1, respectively.

Consider `Cc1cc(CN2CCN(c3c(Br)cnc4nc(-c5ccc(N6CCN(C)CC6)cc5)[nH]c34)CC2)no1`, for which the values for the cell viability in experiment [1] and in experiment [2] were 0.336 and 0.748, respectively.

`COc1cc2nc(N3CCCN(C)CC3)nc(NC3CCN(Cc4ccccc4)CC3)c2cc1OC`: the cell viability in experiment [1] amounted to 0.882; in experiment [2] it was 0.884.

With `O=S(=O)(O)c1ccc2cc(N=Nc3cc(S(=O)(=O)O)c4cccnc4c3O)ccc2c1`, the cell viability in experiment [1] was 0.802; in experiment [2] it was 1.

Take `COc1cc(OC)c2c(=O)[nH]c(-c3cc(C)c(OCCO)c(C)c3)nc2c1`: the results for the cell viability in experiment [1] and in experiment [2] were 0.878 and 0.706, respectively.

For the compound `O=P(O)(O)OC(CO)CO`, the values for the cell viability in experiment [1] and in experiment [2] were 1.1 and 0.951, respectively.

`CN(C)Cc1c(C(=O)NCCOc2ccc(C(=O)NO)cc2)oc2ccccc12`: the cell viability in experiment [1] amounted to 0.531; in experiment [2], 0.627.

Consider `O=C(/C=C/c1cccc(S(=O)(=O)Nc2ccccc2)c1)NO`, for which the figures for the cell viability in experiment [1] and in experiment [2] were 0.488 and 0.79, respectively.

Regarding `CC(=O)SCC(=O)c1ccc(NS(=O)(=O)c2ccc(OCCCN(C)C)cc2)nc1`, the cell viability in experiment [1] worked out at 0.637; in experiment [2], 0.793.

Take `O=C(O)CCCc1ccccc1`: the cell viability in experiment [1] came to 0.829; in experiment [2], 0.76.

For the compound `CC[C@@H]1C(=O)N(C)c2cnc(Nc3ccc(C(=O)NC4CCN(C)CC4)cc3OC)nc2N1C1CCCC1`, the cell viability in experiment [1] is 0.408; in experiment [2] it was 0.721.

Consider `Cc1cc(Cl)ccc1OCCCC(=O)NO`, for which the cell viability in experiment [1] was found to be 0.708; in experiment [2], 0.813.

As for `CN1CCN(c2nc(C3=C(c4c[nH]c5ccccc45)C(=O)NC3=O)c3ccccc3n2)CC1`, the cell viability in experiment [1] worked out at 0.963; in experiment [2], 0.686.

As for `CCC1C/C(=C\c2cccnc2)C(=O)/C(=C/c2cccnc2)C1` (stereo not given), the cell viability amounted to 0.991 in experiment [1] and 0.769 in experiment [2].

Take `c1cc(-c2cnn3cc(-c4ccc(OCCN5CCCCC5)cc4)cnc23)ccn1`: the cell viability was 0.499 and 0.903 in experiment [1]; 0.526 and 0.769 in experiment [2].

For the compound `Cc1cc(C)c(CNC(=O)c2cc(-c3ccc(N4CCN(C)CC4)nc3)cc3c2c(C)cn3C(C)C)c(=O)[nH]1`, the cell viability in experiment [1] amounted to 0.934; in experiment [2] it was 1.03.

For `CCC(CC)(NC(=O)C(C)C)C(=O)N[C@@H](CCCN=C(N)N)C(=O)NC1(C(=O)NC(c2ccc(F)cc2)c2ccc(F)cc2)CCCC1`, the cell viability in experiment [1] came out at 1.07; in experiment [2], 0.894.

Turning to `Cc1csc(-c2nnc(Nc3ccc(Oc4ncccc4-c4ccnc(N)n4)cc3)c3ccccc23)c1`, the cell viability amounted to 0.598 in experiment [1] and 0.532 in experiment [2].

As to `CNNCc1ccc(C(=O)NC(C)C)cc1`, the cell viability was 1.05 in experiment [1] and 1.02 in experiment [2].

Turning to `Cn1cc(-c2ccc(S(=O)(=O)n3ccc(/C=C/C(=O)Nc4ccccc4N)c3)cc2)cn1`, the cell viability in experiment [1] was 0.58; in experiment [2], 0.639.

In the case of `CC[C@H](C)n1cc(C)c2c(C(=O)NCc3c(C)cc(C)[nH]c3=O)cc(-c3ccc(N4CCNCC4)nc3)cc21`, the cell viability in experiment [1] came out at 0.895; in experiment [2] it was 0.79.

Regarding `CN(C)c1ccc(-c2nc3ncc(Cl)c(N4CCN(CC(=O)Nc5nccs5)CC4)c3[nH]2)cc1`, the cell viability in experiment [1] worked out at 0.989; in experiment [2] it was 0.904.

As for `COc1ccccc1C(=O)Nc1cc2c(cc1N1CCCCC1)n(C)c(=O)n2C`, the cell viability in experiment [1] was 1.03; in experiment [2], 0.844.

On to `C[C@@H]1CCN(C(=O)CC#N)C[C@@H]1N(C)c1ncnc2[nH]ccc12`, for which the cell viability in experiment [1] was 0.925 and 0.912; in experiment [2], 0.888 and 0.841.

`COc1cc(-c2cn(C)c(=O)c3cnccc23)cc(OC)c1CN(C)C`: the values for the cell viability in experiment [1] and in experiment [2] were 0.882 and 1.01, respectively.

`Cc1cc(Nc2nc(N[C@@H](C)c3ncc(F)cn3)ncc2Cl)[nH]n1`: the cell viability in experiment [1] amounted to 0.748; in experiment [2], 0.712.

For the compound `Nc1ccccc1NC(=O)c1ccc(CNC(=O)OCc2cccnc2)cc1`, the cell viability in experiment [1] was 0.692; in experiment [2], 0.62.

On to `CCCc1cc(C)[nH]c(=O)c1CNC(=O)c1cc(-c2ccc(N3CCN(C(C)C)CC3)nc2)cc2c1cnn2C(C)C`, for which the cell viability in experiment [1] was determined as 1.01; in experiment [2], 0.785.

Turning to `COc1cc2c(NC3CCN(C(C)C)CC3)nc(C3CCCCC3)nc2cc1OCCCN1CCCC1`, the cell viability in experiment [1] was 1.01; in experiment [2] it was 0.823.

As for `COc1ccccc1C(=O)Nc1cc2c(cc1N1CCCC1)n(C)c(=O)n2C`, the cell viability in experiment [1] came out at 0.928; in experiment [2] it was 1.04.

Consider `COc1ccc(Cn2ccc3ccc(C(=O)NO)cc32)cc1`, for which the values for the cell viability in experiment [1] and in experiment [2] were 0.968 and 0.725, respectively.

As to `Nc1ccn([C@@H]2O[C@H](CO)[C@@H](O)C2(F)F)c(=O)n1`, the cell viability in experiment [1] came out at 0.113; in experiment [2], 0.601.

Turning to `C[C@]1(c2nc3c(C(N)=O)cccc3[nH]2)CCCN1`, the cell viability in experiment [1] was 1.07 and 0.993; in experiment [2], 0.81 and 0.911.

As for `CN1CCCN(C(=O)c2cccc(-c3ccc(/C=C4/C(=O)Nc5ccc(Cl)cc54)o3)c2)CC1`, the cell viability in experiment [1] amounted to 0.685; in experiment [2], 0.755.

As to `CCN(CC)CCNC(=O)c1ccc(N)cc1`, the cell viability in experiment [1] was determined as 0.966; in experiment [2], 0.821.

Take `Nc1cc(F)ccc1NC(=O)/C=C/c1cnn(C/C=C/c2ccccc2)c1`: the cell viability amounted to 1.15 in experiment [1] and 0.905 in experiment [2].

`Oc1nc(-c2ccc(C(F)(F)F)cc2)nc2c1CSCC2`: the cell viability in experiment [1] was 1.1; in experiment [2], 0.829.

In the case of `N#Cc1ccc(COc2ccc(-c3cccc4nc(NC(=O)C5CC5)nn34)cc2)cn1`, the cell viability in experiment [1] worked out at 0.79; in experiment [2] it was 0.707.

As for `CCN(CC)C(=O)/C(C#N)=C/c1cc(O)c(O)c([N+](=O)[O-])c1`, the cell viability in experiment [1] was 0.978; in experiment [2] it was 1.03.

For `O=C(O)c1ccc(Nc2ncc3c(n2)-c2ccc(Cl)cc2C(c2c(F)cccc2F)=NC3)cc1`, the cell viability in experiment [1] is 0.686; in experiment [2], 0.631.

Regarding `O=C(O)c1ccnc(C(=O)O)c1`, the cell viability was determined as 0.876 in experiment [1] and 1.05 in experiment [2].

Turning to `CC(C)N(CCCNC(=O)Nc1ccc(C(C)(C)C)cc1)C[C@H]1O[C@@H](n2ccc3c(N)ncnc32)[C@H](O)[C@@H]1O`, the cell viability in experiment [1] worked out at 0.963; in experiment [2] it was 0.904.

In the case of `CC(=O)Nc1ccc(C(=O)Nc2ccccc2N)cc1`, the cell viability in experiment [1] was 0.975; in experiment [2] it was 0.851.

On to `CC(C)C(=O)SCCCCCCC(=O)Nc1nc(-c2ccccc2)cs1`, for which the values for the cell viability in experiment [1] and in experiment [2] were 0.754 and 0.891, respectively.
